The target in the test is Myc-Trio1-1203 (human). Kind of test: co-IP; co-transfected COS7 cells; lysis in 50 mM Tris pH 7.5, 150 mM NaCl, 1 mM EDTA, 1% Triton X-100; IP with rabbit anti-Myc antibody or rabbit IgG, protein A/G beads; washes in NETN-250 (250 mM NaCl, 0.5% NP-40); Western blot with anti-GFP. For orientation: In western blotting, separated proteins are transferred to a membrane and probed.

Results are given in words; binding and its absence hold for the method and conditions named. In cells and extracts the contact can be indirect. Binding calls can cover weak binding; strength is not graded here. Where a sequence is shown, tags or fusion partners need not be part of it.

The values below come from publication PMC5132261.

B1: GFP-Bassoon3263-3938 (domain or fragment, UniProt O88778 3263-3938)
chain: DPGEPAVLEGPTLPCCYGRGEEESEEDSYDPRGKSGHHRSMESNGRPASTHYYSDSDYRHGARADKYGPGPMGPKHPSKNLAPAAISSKRSKHRKQGMEQKISKFSPIEEAKDVESDLASYPPPTVSSSLTSRSRKFQDEITYGLKKNVYEQQRYYGVSSRDTAEEDDRMYGGSSRSRVASAYSGEKLSSHDFSSRSKGYERERETAQRLQKAGPKPSSLSMAHGRARPPMRSQASEEESPVSPLGRPRPAGGALPPGDTCPQFCSSHSMPDVQEHVKDGPRAHAYKREEGYILDDSHCVVSDSEAYHLGQEETDWFDKPRDARSDRFRHHGGHTVSSSQKRGPARHSYHDYDEPPEEGLWPHDEGGPGRHTSAKEHRHHGDHGRHSGRHAGEEPGRRAARPHARDMGRHETRPHPQASPAPAMQKKGQPGYPSSADYSQPSRAPSAYHHASDSKKGSRQAHSGPTVLQPKPEAQAQPQMQGRQAVPGPQQSQPPSSRQTPSGTASRQPQTQQQQQQQQQQQQQQQQQQQQQQQQGLGQQAPQQAPSQARLQQQSQPTTRSTAPAASHPAGKPQPGPTTAPGPQPAGLPRAEQAGSSKPAAKAPQQGRAPQAQSAPGPAGAKTGARPGGTPGAPAGQPAAEGESVFSKILPGGAAEQAGKLTEAVSAFGKKFSSFW
Regarding B1, the binding entry is “binds”.

B2: GFP-tagged C-terminal PBH9/10 region of Piccolo (amino acids 4077–4875) (domain or fragment, UniProt Q9JKS6 4077-4875)
chain: EFRRGTESLDHLAGLSHYYHADTSYRHFPKSEKYSISRLTLEKQAAKQLPAAILYQKQSKHKKSLIDPKMSKFSPIQESRDLEPDYPTYMSSGTSSIGGISSRARLLQDDITFGLRKNITDQQKFMGSSLGSGLGTLGNTIRSALQDEADKPYSSGSRSRPSSRPSSVYGLDLSIKRDSSSSSLRLKAQEAEALDVSFGHSSSSARTKPTSLPISQSRGRIPIVAQSSEEESPLSPVGQPMGMARAAAGPLPPISADTRDQFGSSHSLPEVQQHMREESRTRGYDRDIAFIMDDFQHAMSDSEAYHLRREETDWFDKPRESRLENGHGLDRKLPERLVHSRPLSQHQEQILQMNGKTIHYIFPHARVKITRDFKDHTGSGNGLGIRIVGGKEIPGHSGEIGAYIAKILPGESAEHTGPLMEGMQVLEWNGVPLTSKTYEEVQSIINQQSGEAEICVRLDLNMLSDSENPQHLELHEPPKVDKAKSPGVDPKQLAAELQKVSLQQSPLVMSSVVEKGSHAHSGPTSAGSSSVPSPGQPGSPSVSKKKHSSTKPTDGPKAASHPITGEIQLQINYDLGNLIIHILQARNLVPRDNNGYSDPFVKVYLLPGRGQVMVVQNASAEYKRRTKYVQKSLNPEWNQTVIYKSISMEQLMKKTLEVTVWDYDRFSSNDFLGEVLIDLSSTSHLDNTPRWYPLKEQTESIDHGKSHSSQNSQQSPKPSVIKSRSHGIFPDPSKDMQVPTIEKSHSSPGSSKSSSEGHLRSHGPSRSQSKTSVAQTHLEDAGVAIAAAEAAVQQLRIQP
In the case of B2, the binding result is reported as “binds”.

B3: GFP-Bassoon2298-3238 (domain or fragment, UniProt O88778 2298-3238)
chain: GAREEPLSTTAPPAVIKEAPVAQAPAPPPGQKPAGDAAAGSGSGVLGRPVMEKEEASQEDRQRKQQEQLLQLERERVELEKLRQLRLQEELERERVELQRHREEEQLLVQRELQELQTIKHHVLQQQQEERQAQFALQREQLAQQRLQLEQIQQLQQQLQQQLEEQKQRQKAPFPATCEAPSRGPPPAATELAQNGQYWPPLTHTAFIAVAGTEGPGQAREPVLHRGLPSSASDMSLQTEEQWEAGRSGIKKRHSMPRLRDACEPESGPDPSTVRRIADSSVQTDDEEGEGRYLLTRRRRTRRSADCSVQTDDEDNAEWEQPVRRRRSRLSRHSDSGSDSKHEASASSSAAAAAARAMSSVGIQTISDCSVQTEPEQLPRVSPAIHITAATDPKVEIVRYISAPEKTGRGESLACQTEPDGQAQGVAGPQLIGPTAISPYLPGIQIVTPGALGRFEKKKPDPLEIGYQAHLPPESLSQLVSRQPPKSPQVLYSPVSPLSPHRLLDTSFASSERLNKAHVSPQKQFIADSTLRQQTLPRPMKTLQRSLSDPKPLSPTAEESAKERFSLYQHQGGLGSQVSALPPNGLVRKVKRTLPSPPPEEAHLPLAGQVPSQLYAASLLQRGLAGPTTVPATKASLLRELDRDLRLVEHESTKLRKKQAELDEEEKEIDAKLKYLELGITQRKESLAKDRVGRDYPPLRGLGEHRDYLSDSELNQLRLQGCTTPAGQYVDYPASAAVPATPSGPTAFQQPRFPPAATQYTAGSSGPTQNGFLAHQAPTYTGPSTYPAPTYPPGTSYPAEPGLPSQPAFHPTGHYAAPTPMPTTQSAPFPVQADSHAAHQKPRQTSLADLEQKVPTNYEVISSPAVTVSSTPSETGYSGPAVSSSYEHGKAPEHPRGGDRSSVSQSPAPTYPSDSHYTSLEQNVPRNYVMIDDISELTKDS
As to B3, the binding entry is “no binding”.
